PubChem BioAssay AID743454 | Peter MacCallum Cancer Centre, 2014

Purpose: 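Genes whose loss kills vorinostat-resistant colon cancer cells under vorinostat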 (primary screen)
Cells: human HCT116-VR colon cancer cells, selected for vorinostat resistance
Reagent: siRNA pool against human genes, 40 nM siRNA pool
Time to read-out: vorinostat for 24 h, read-out about 72 h after transfection
Challenge: vorinostat at 2.5 µM final
Measurement: 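Cell viability by CellTiter-Fluor and caspase 3/7 activity by luminescence, each scaled to mock wells per plate, duplicates averaged, then robust z-scored over all plates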
Scale: viability robust z-score: higher = more viable cells than screen typical; caspase robust z-score: higher = more caspase 3/7 activity than screen typical
Hit rule: 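Hits are knock-downs in viability class RV1/RV2 or caspase class CA1/CA2, excluding ones that killed cells in the no-drug cell-count arm; hits then retested with single siRNAs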
This is an unselected part of about 18,000 reagents tested. 450 of all reagents (2.5%) were called active. 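Single biological run; no consistent viability z cut-off exists, so the class columns, not z-scores, define the calls.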 Unmarked entries are inactive.

gene knocked down	viability hit class	caspase hit class	viability robust z-score	caspase robust z-score
PARD3 (par-3 family cell polarity regulator)	no change	no change	-0.73	-1.21
SLIT2 (slit guidance ligand 2)	no change	no change	0.26	0.46
CLN6 (CLN6 transmembrane ER protein)	no change	no change	1.25	-0.94
CFAP20DC (CFAP20 domain containing)	no change	no change	1.46	-0.45
TROAP (trophinin associated protein)	no change	no change	-0.21	0.88
ITGAD (integrin subunit alpha D)	no change	no change	-0.2	-0.38
LZTR1 (leucine zipper like post translational regulator 1)	no change	no change	-1.54	1.2
CTXN3 (cortexin 3)	no change	no change	1.79	0.18
YJU2 (YJU2 splicing factor homolog)	no change	no change	0.24	0.56
SPX (spexin hormone)	no change	no change	0.06	0.22
EPPIN (epididymal peptidase inhibitor)	no change	no change	0.18	-0.3
AAGAB (alpha and gamma adaptin binding protein)	no change	no change	-0.04	-0.75
OR51B5 (olfactory receptor family 51 subfamily B member 5)	no change	no change	0.9	-0.5
DNAJB9 (DnaJ heat shock protein family (Hsp40) member B9)	no change	no change	0.29	1.6
CUTC (cutC copper transporter)	no change	no change	0.5	-1.23
MRS2 (magnesium transporter MRS2)	no change	no change	0.11	0.9
SEPTIN3 (septin 3)	no change	no change	0.23	-0.07
OR4K2 (olfactory receptor family 4 subfamily K member 2)	no change	no change	-0.31	-0.6
ARHGAP25 (Rho GTPase activating protein 25)	no change	no change	-0.55	-1.21
CALHM2 (calcium homeostasis modulator family member 2)	no change	no change	0.28	-0.68
GPR107 (G protein-coupled receptor 107)	no change	no change	-1.66	-0.22
PCGF2 (polycomb group ring finger 2)	no change	no change	0.8	-0.99
ZNF660 (zinc finger protein 660)	no change	no change	1.28	-0.47
RIN2 (Ras and Rab interactor 2)	no change	no change	0.46	-0.42
SHISA4 (shisa family member 4)	no change	no change	-0.64	-0.76
FAM107A (family with sequence similarity 107 member A)	no change	no change	-1.4	0.66
PROM2 (prominin 2)	no change	no change	-0.38	1.59
MAGEA9 (MAGE family member A9)	no change	no change	0.42	0.04
LY9 (lymphocyte antigen 9)	no change	no change	-1.12	-0.88
VCAN (versican)	no change	no change	1.14	-0.99
LDHB (lactate dehydrogenase B)	no change	no change	0.3	-0.98
RAB5B (RAB5B, member RAS oncogene family)	no change	no change	0.18	-0.44
SGK1 (serum/glucocorticoid regulated kinase 1)	no change	no change	0.98	0.3
SMARCA5 (SNF2 related chromatin remodeling ATPase 5)	no change	no change	-0.96	0.88
CLUH (CLUH binding protein of NUMT mRNA)	no change	no change	-0.2	-0.29

2 consecutive records already listed:
gene knocked down	viability hit class	caspase hit class	viability robust z-score	caspase robust z-score
DNAJB9 (DnaJ heat shock protein family (Hsp40) member B9)	no change	no change	0.29	1.6
CUTC (cutC copper transporter)	no change	no change	0.5	-1.23

Further records follow.
gene knocked down	viability hit class	caspase hit class	viability robust z-score	caspase robust z-score
FGFBP3 (fibroblast growth factor binding protein 3)	no change	no change	0.48	-1.16
SMIM7 (small integral membrane protein 7)	no change	no change	-1.05	0.12
PRAMEF4 (PRAME family member 4)	no change	no change	-0.6	2.39
BTG4 (BTG anti-proliferation factor 4)	no change	no change	-0.23	3.58
ARHGAP44 (Rho GTPase activating protein 44)	no change	no change	0.04	2.15
PDE12 (phosphodiesterase 12)	no change	no change	2.69	2.71
KCNV1	no change	no change	-0.22	-0.98
GOLGA1 (golgin A1)	no change (active)	CA1 (caspase activation)	-0.58	5.51
OR5B3 (olfactory receptor family 5 subfamily B member 3)	no change	no change	0.27	0.12
MRGPRX3 (MAS related GPR family member X3)	no change	no change	0.62	0.1
CXCL10 (C-X-C motif chemokine ligand 10)	no change	no change	1.21	-0.52
ZNF442 (zinc finger protein 442)	no change	no change	0.02	-0.36
RTP4 (receptor transporter protein 4)	no change	no change	-0.02	-0.46
ACADSB (acyl-CoA dehydrogenase short/branched chain)	no change	no change	1.77	-0.49
LRRC31 (leucine rich repeat containing 31)	no change	no change	2.25	-0.52
SERPINB3 (serpin family B member 3)	no change	no change	0.28	0.04
NCAM2 (neural cell adhesion molecule 2)	no change	no change	0.74	-1.03
OR10K2 (olfactory receptor family 10 subfamily K member 2)	no change	no change	0.5	0.52
GARS1 (glycyl-tRNA synthetase 1)	no change	no change	-0.45	-0.7
ANGPT4 (angiopoietin 4)	no change	no change	-1.22	0.02
SNRNP27 (small nuclear ribonucleoprotein U4/U6.U5 subunit 27)	no change	no change	-0.5	-0.59
BORCS6 (BLOC-1 related complex subunit 6)	no change	no change	-2.5	0.54
